Experimental findings from PMC9612826 are described below.

Amino acid sequences for entries named in this document (tags omitted).
UniProt P04483: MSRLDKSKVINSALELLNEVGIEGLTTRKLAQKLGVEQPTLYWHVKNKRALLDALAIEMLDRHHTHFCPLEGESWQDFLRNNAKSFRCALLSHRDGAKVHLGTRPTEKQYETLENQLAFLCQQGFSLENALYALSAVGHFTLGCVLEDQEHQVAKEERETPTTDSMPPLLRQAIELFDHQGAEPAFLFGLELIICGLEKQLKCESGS

For this assay, the target named is nls-tetracycline-repressor fused to EGFP (UniProt P04483). As to the kind of experiment: co-IP; S2R+ cells transiently co-expressing the tagged proteins; cleared lysate (20 mM Tris-HCl pH 7.5, 300 mM NaCl, 2 mM MgCl2, 0.1% Nonidet P-40 Substitute, 5% glycerol, 0.5 mM EGTA, 1 mM DTT, Benzonase) on GFP-Trap agarose (anti-EGFP), 1 hour, 4°C; immunoblot.

These are yes or no findings as the source states them, for the method shown. In cells and extracts the contact can be indirect. Where a sequence is shown, tags or fusion partners need not be part of it.

B1: TEF-myc (protein, UniProt Q7K4M4 1-649)
chain: MSKFLDMLSGSQCVSLEKCGDVVVSTNDCMIALYCHFCRDLFTQLPEFLRHLQSNHSDVLHFTKEHNVYSVEELLSGEQGKAHEDAQSAGHNSSSGDSSSLMNSEDSRAIEGSEDNSDNSPMKPEQIGKQSEINLLAEVTNILLQTNDKELKPENGVFNRPRKKANNESSSLKICDLKSHTIARTSRKRMSMVKNRILRVLDSDLSAKLEIKPPEPNSKLSITEPIQEDNIPGTCFDTPTKPIPSSSQLSVRKSSLTEANQICTKYAEKKTAPTMPKLLNCVPKPILTSQQAHTNAEISEINETYHLAASQVTKTTKTFPVKITQIDILQPVKLPKTLITPINEEGVSDQVENSTNNINNAQSLPKENTKKFFKKRSELGIKAQGSPNKFFKIIKSKANPIIVKRVQTTSAKASTNKIQIRSNDKTNCFASEFNSTKIRKLKMENCVDLKSEDPCANTNTRLNKLATISSCEILKAVGLPAITDNPIEDTLLPDELETIRKKADQFIKIYRKYDSIWNYRKICPPAKPDFISQQIFALTREVNKTMLCNLANSDIKGIINQISVWHYNIYTQYIDLDTISENARYTLKLFSFLPVSFAYFCKCCDDIFILKKEYLKHLISHQVRFQCTKCIKVFKYKGYYEKHLRNAHS
As to B1, the binding entry is listed as “no binding”.
